Results as given in the supplement of paper PMC11006884.
This is a selection; strong and weak results do not stand in their true shares.

Amino acid sequences for entries named in this document (tags omitted). A change or cut given only in a name is not applied to a line headed by its entry.
UniProt P23528, whole entry, looked up: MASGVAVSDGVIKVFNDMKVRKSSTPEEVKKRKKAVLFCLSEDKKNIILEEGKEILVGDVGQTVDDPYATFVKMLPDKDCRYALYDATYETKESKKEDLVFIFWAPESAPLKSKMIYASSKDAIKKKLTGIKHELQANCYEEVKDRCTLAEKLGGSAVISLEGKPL
UniProt P27707: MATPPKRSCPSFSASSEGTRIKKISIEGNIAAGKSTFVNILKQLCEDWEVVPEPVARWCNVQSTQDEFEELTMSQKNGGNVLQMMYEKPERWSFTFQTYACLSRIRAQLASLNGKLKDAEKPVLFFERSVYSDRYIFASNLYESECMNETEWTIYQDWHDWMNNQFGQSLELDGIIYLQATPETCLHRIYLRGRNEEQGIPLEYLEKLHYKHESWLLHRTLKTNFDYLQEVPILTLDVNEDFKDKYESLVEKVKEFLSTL
UniProt P21291: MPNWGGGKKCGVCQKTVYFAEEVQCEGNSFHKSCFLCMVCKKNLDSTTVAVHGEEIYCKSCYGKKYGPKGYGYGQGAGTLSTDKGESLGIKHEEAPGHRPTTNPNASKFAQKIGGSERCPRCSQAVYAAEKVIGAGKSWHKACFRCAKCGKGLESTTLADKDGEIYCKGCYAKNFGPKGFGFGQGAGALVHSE
UniProt P21333, whole entry, looked up: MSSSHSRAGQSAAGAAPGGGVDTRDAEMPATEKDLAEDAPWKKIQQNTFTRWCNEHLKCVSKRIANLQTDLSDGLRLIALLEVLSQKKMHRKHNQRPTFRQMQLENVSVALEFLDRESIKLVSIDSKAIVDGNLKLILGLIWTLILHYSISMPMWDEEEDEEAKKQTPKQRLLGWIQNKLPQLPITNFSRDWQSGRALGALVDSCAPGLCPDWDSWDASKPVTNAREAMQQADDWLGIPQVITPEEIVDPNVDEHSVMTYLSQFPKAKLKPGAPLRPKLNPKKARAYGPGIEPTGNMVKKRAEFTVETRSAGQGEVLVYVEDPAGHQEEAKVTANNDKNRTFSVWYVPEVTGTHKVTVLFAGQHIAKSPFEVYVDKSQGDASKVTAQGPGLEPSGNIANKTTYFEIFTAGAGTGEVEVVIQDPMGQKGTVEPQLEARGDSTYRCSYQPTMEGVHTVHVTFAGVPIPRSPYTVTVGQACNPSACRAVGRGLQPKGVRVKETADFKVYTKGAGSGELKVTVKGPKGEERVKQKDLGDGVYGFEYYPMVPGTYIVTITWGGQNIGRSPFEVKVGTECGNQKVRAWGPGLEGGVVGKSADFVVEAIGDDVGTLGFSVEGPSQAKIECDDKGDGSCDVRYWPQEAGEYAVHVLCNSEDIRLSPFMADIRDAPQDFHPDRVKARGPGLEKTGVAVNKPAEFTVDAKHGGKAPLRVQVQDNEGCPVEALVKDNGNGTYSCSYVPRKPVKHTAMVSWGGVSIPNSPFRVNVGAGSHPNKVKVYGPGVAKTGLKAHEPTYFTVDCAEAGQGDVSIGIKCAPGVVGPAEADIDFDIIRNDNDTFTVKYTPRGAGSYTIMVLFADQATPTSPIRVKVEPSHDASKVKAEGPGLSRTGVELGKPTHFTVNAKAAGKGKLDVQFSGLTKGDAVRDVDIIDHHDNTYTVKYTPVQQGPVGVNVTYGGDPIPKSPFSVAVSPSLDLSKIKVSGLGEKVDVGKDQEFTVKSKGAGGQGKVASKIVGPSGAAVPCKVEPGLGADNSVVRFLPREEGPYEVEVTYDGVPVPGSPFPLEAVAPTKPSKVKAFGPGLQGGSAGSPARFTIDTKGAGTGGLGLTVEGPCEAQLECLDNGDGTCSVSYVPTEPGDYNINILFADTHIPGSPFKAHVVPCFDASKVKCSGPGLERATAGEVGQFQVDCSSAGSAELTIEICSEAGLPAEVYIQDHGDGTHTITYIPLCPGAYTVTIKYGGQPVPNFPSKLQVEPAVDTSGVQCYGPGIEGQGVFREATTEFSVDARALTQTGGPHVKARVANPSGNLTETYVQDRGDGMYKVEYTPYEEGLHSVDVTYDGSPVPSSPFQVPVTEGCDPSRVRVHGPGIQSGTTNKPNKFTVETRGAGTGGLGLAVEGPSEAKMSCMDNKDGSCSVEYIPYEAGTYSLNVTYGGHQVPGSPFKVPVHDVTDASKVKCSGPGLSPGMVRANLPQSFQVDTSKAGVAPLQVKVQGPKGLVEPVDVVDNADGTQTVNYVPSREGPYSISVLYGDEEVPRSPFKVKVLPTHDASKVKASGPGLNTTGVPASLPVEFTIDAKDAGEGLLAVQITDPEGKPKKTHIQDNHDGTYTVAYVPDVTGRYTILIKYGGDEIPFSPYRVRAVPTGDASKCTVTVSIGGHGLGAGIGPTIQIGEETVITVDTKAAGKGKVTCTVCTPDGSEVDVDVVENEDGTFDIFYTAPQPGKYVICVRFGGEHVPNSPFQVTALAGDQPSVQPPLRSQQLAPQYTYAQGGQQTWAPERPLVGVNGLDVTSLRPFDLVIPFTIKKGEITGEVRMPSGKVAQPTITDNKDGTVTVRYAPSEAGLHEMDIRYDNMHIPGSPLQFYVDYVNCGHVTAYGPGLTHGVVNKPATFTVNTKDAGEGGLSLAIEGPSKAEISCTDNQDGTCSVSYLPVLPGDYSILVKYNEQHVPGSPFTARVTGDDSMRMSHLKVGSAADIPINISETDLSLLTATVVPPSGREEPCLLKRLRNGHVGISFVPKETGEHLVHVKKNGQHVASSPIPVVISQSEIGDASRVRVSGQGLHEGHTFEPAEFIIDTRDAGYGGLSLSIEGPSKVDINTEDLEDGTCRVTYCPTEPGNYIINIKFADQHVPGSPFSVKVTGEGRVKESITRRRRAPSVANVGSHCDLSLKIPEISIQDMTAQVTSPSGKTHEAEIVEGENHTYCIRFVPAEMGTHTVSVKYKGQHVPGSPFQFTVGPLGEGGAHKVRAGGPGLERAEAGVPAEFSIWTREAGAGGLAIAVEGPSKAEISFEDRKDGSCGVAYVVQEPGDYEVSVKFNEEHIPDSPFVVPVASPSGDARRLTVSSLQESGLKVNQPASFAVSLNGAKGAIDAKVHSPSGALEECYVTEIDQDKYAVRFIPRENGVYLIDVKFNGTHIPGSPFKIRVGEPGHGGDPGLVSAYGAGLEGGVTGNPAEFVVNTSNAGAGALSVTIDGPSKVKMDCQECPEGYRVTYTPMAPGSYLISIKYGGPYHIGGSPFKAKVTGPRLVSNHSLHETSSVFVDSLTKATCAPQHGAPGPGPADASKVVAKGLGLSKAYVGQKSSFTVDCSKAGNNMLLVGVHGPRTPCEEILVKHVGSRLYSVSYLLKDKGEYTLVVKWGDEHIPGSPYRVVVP
UniProt P30041: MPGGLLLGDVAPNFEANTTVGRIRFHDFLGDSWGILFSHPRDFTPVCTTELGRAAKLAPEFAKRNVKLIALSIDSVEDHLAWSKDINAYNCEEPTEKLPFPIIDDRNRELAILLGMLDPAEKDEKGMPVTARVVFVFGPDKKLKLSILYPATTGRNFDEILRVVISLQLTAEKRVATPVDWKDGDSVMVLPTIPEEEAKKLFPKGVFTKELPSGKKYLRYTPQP
UniProt P27708: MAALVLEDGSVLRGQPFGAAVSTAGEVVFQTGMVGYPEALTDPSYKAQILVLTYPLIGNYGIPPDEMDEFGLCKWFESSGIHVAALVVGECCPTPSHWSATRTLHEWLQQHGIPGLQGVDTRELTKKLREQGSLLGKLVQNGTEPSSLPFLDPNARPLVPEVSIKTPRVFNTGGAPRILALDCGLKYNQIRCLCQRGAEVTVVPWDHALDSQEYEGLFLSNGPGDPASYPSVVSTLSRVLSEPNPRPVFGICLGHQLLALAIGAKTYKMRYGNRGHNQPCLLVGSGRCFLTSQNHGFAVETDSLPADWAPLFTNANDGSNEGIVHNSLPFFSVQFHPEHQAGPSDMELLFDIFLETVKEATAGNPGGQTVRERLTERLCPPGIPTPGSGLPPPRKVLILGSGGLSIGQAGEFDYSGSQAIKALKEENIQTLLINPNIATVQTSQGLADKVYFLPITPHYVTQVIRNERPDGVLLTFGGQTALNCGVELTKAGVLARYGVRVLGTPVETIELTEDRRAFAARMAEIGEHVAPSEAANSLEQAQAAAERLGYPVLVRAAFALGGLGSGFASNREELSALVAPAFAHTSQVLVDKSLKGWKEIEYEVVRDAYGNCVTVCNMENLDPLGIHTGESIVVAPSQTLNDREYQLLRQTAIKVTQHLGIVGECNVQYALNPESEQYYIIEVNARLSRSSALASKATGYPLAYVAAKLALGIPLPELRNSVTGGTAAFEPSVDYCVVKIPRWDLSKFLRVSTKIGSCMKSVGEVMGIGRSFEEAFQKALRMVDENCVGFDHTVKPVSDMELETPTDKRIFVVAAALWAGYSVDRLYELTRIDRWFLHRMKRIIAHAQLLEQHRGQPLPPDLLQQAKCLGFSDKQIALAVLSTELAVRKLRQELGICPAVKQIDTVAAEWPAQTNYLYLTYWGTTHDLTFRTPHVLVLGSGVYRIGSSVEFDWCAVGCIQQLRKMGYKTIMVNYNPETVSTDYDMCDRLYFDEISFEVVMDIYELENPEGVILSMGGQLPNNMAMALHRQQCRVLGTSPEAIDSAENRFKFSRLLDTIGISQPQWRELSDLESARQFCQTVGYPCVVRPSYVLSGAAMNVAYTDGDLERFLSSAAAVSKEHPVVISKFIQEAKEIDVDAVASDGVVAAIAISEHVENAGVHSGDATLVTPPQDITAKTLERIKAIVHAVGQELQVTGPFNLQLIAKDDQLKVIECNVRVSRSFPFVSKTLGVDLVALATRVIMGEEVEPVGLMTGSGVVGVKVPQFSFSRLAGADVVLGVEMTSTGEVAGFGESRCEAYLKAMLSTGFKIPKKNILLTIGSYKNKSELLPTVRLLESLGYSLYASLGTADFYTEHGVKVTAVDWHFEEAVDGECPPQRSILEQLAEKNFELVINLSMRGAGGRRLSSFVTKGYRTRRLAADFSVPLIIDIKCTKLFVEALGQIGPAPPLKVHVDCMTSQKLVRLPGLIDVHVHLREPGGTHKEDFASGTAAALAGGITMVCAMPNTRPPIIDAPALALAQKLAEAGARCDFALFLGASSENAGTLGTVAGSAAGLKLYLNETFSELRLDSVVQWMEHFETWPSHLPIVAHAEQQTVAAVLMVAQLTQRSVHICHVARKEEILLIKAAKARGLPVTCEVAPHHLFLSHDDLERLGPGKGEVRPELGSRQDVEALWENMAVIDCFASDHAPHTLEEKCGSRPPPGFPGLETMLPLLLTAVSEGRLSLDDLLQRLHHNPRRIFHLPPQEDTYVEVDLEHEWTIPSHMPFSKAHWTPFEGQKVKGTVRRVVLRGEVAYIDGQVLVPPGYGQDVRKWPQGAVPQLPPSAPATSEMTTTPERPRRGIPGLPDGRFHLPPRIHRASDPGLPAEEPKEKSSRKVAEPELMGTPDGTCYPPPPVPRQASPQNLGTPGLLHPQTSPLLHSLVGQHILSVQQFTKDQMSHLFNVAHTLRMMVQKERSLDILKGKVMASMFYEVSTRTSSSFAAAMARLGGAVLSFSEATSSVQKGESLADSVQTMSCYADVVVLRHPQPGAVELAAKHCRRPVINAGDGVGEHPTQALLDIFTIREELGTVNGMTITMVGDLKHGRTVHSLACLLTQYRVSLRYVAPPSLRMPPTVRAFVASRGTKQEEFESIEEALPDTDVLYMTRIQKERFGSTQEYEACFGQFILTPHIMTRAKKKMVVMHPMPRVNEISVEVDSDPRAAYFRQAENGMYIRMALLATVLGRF
UniProt P17987, whole entry, looked up: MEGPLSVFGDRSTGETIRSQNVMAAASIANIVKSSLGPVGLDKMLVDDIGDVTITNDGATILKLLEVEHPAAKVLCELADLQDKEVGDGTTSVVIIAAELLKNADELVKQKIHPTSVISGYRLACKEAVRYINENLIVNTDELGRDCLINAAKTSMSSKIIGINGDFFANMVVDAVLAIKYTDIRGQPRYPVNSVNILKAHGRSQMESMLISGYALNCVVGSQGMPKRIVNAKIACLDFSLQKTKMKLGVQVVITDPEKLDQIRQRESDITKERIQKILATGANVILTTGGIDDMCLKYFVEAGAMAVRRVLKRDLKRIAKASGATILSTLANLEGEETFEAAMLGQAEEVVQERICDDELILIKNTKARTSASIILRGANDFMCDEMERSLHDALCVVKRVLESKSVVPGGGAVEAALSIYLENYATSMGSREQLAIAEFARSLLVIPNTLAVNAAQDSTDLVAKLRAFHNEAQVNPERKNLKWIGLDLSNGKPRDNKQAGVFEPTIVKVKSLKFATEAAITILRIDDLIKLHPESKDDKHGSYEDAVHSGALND
UniProt P22087: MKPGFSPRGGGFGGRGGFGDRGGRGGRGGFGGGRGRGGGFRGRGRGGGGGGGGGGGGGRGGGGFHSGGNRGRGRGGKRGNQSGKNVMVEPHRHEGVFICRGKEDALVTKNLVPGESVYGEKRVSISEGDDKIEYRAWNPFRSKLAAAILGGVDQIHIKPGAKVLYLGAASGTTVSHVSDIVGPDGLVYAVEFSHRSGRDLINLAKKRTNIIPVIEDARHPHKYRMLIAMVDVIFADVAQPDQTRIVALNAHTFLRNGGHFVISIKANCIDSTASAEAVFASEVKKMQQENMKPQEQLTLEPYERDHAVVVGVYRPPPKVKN

The targets below were run with COC(=O)C#Cc1ccccc1 [methyl 3-phenylpropiolate] (assay: log2 ratio of iodoacetamide-alkyne labeling of the cysteine site, DMSO over compound (competition); higher = stronger covalent engagement of the cysteine by the compound, active = 1 or more). Conditions: 500 µM; treatment time 1 h; system: HEK293T cell lysate.
Summary of the method: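 The log2 competition ratio per cysteine is defined as mean reporter intensity in control channels over mean reporter intensity in compound channels. Lysate from HEK293T cells (2 mg/mL) received electrophile (500 µM) or vehicle for 1 h at ambient temperature, followed by iodoacetamide alkyne for 1 h. Samples were clicked to sCIP-TMT reagents, pooled, trypsin-digested overnight at 37 °C, streptavidin-enriched, acid-eluted and run on Orbitrap Eclipse LC-MS/MS with FAIMS, with quantification in FragPipe. Three replicates with duplicate channels were used, and any cysteine quantified in only one replicate was excluded.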

Target	log2 ratio of iodoacetamide-alkyne labeling
NDUFS1 C128 (UniProt P28331)	inactive: -0.111
PFKL C708 (UniProt P17858)	inactive: 0.221
UniProt P26639_C630	inactive: 0.323
CAST C408 (UniProt P20810)	active: 1.01
ACAT1 C119 (UniProt P24752)	inactive: 0.118
UBA1 C413 (UniProt P22314)	inactive: 0.0618
MCM3 C360 (UniProt P25205)	inactive: 0.118
RPL17 C15 (UniProt P18621)	inactive: 0.423
CFL1 C139 (UniProt P23528)	inactive: 0.409
APC C2664 (UniProt P25054)	inactive: 0.154
DCK C59 (UniProt P27707)	inactive: 0.21
DDX5 C234 (UniProt P17844)	inactive: 0.00685
TKT C386 (UniProt P29401)	inactive: -0.878
GART C41 (UniProt P22102)	inactive: 0.0457
CSRP1 C58 (UniProt P21291)	inactive: 0.21
ATP6V1B2 C207 (UniProt P21281)	inactive: 0.425
UniProt P23610_C62	inactive: 0.0767
TEAD1 C53 (UniProt P28347)	inactive: 0.216
FLNA C478 (UniProt P21333)	inactive: 0.00171

Target	log2 ratio of iodoacetamide-alkyne labeling
SCP2 C71 (UniProt P22307)	inactive: 0.386
PRDX6 C91 (UniProt P30041)	inactive: 0.183
RPL17 C57 (UniProt P18621)	inactive: 0.53
TKT C206 (UniProt P29401)	inactive: -0.631
ANXA7 C285 (UniProt P20073)	inactive: 0.0794
FLNA C1453 (UniProt P21333)	inactive: 0.357
ABCD3 C472 (UniProt P28288)	inactive: 0.697
DNMT1 C580 (UniProt P26358)	inactive: 0.279
RASA1 C1002 (UniProt P20936)	inactive: 0.0468
VARS C340 (UniProt P26640)	inactive: 0.192
FLNA C2601 (UniProt P21333)	inactive: 0.299
ANXA7 C327 (UniProt P20073)	inactive: 0.191
FLNA C1260 (UniProt P21333)	inactive: 0.497
CHML C582 (UniProt P26374)	inactive: -0.0416
CAD C1636 (UniProt P27708)	inactive: 0.128
YWHAQ C94 (UniProt P27348)	inactive: 0.0617
TCP1 C147 (UniProt P17987)	inactive: 0.482
FBL C99 (UniProt P22087)	inactive: 0.566
TCP1 C236 (UniProt P17987)	inactive: 0.129

Random excerpt: 2 entries already listed
Target	log2 ratio of iodoacetamide-alkyne labeling
TCP1 C236 (UniProt P17987)	inactive: 0.129
RASA1 C1002 (UniProt P20936)	inactive: 0.0468
